Test results taken from publication doi:10.1101/2024.02.17.580827 (bioRxiv, 2024).
Where two headings read alike, the source gives them in different places. No constants are given. Whether binding was seen depends on the method and setting. For some of these results: Binding seen in cells or lysates may run through a third protein. Some binding calls cover weakened binding; strength is not graded here.

Protein sequences, listed by entry. Tags and fused reporters are not part of them.
UniProt P0A825: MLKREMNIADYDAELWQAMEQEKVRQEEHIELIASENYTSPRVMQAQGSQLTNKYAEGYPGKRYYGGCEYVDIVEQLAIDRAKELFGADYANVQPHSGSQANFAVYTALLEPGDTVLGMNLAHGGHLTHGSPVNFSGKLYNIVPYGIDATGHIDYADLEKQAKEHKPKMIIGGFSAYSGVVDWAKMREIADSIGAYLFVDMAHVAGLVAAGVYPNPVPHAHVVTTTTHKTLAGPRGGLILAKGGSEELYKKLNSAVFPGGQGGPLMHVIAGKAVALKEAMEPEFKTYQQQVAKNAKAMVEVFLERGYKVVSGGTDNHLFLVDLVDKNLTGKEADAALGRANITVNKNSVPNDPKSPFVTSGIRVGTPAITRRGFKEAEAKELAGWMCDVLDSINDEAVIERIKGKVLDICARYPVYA
UniProt P0AEZ1: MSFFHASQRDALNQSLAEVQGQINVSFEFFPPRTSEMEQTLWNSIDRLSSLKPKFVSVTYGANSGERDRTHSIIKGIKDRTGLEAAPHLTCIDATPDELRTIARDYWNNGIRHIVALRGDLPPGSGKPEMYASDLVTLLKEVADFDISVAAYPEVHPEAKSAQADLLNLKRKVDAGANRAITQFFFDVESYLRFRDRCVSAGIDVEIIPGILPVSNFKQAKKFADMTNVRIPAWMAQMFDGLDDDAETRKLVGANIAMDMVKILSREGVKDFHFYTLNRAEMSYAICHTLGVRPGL
UniProt P0ABQ4: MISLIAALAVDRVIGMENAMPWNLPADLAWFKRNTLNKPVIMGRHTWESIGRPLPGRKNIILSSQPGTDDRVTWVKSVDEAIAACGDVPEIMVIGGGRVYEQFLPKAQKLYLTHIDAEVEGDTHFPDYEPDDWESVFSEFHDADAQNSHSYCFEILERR
UniProt P69441: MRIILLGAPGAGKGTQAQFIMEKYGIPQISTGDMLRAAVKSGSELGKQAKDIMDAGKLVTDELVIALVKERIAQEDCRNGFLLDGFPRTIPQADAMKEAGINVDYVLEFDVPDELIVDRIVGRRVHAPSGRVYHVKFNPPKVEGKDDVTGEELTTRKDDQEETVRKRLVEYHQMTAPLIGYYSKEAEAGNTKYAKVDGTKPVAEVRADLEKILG

How the values were obtained:
GlyA (E. coli) = GlyA (E. coli) (UniProt P0A825); test: split reporter
MetF (E. coli) = MetF (E. coli) (UniProt P0AEZ1); test: split reporter
NudB (E. coli) = target: T1, NudB (E. coli) (UniProt P0AFC0); test: split reporter
T1 sequence: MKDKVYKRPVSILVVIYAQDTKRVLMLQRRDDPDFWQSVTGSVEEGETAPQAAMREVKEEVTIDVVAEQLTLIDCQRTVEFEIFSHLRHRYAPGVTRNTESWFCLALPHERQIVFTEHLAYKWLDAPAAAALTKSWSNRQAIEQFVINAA

PurK (E. coli) = target: T2, PurK (E. coli) (UniProt P09029); test: split reporter
T2 sequence: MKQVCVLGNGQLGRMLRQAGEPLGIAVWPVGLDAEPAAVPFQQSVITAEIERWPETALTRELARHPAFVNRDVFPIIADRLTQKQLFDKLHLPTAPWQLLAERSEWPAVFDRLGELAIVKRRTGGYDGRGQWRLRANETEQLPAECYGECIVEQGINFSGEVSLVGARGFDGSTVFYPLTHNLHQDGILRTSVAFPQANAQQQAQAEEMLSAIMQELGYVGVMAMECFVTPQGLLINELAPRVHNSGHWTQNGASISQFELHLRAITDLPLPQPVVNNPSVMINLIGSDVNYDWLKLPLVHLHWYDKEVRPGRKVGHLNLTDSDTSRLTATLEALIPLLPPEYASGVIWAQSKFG

[1] = target: T3, Thymidylate Kinase (Tmk) (E. coli) (UniProt P0A720); test: split reporter
T3 sequence: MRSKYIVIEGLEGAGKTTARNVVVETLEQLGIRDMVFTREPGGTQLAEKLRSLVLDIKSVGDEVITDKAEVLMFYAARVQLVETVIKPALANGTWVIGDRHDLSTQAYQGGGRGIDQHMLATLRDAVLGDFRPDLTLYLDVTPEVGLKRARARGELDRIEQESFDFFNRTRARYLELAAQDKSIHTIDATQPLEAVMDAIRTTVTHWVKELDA

[2] = target: WT DHFR (purified protein) (E. coli) (UniProt P0ABQ4); test: Raman spectroscopy
FolK (purified protein) = target: T4, FolK (purified protein) (E. coli, UniProt P26281 1-159); test: Raman spectroscopy
T4 sequence: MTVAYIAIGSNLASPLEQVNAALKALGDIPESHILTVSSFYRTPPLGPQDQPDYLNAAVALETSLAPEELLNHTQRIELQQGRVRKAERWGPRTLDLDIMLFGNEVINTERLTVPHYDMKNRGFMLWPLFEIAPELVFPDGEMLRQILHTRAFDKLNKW

PurD (E. coli) = target: T5, PurD (E. coli) (UniProt P15640); test: split reporter
T5 sequence: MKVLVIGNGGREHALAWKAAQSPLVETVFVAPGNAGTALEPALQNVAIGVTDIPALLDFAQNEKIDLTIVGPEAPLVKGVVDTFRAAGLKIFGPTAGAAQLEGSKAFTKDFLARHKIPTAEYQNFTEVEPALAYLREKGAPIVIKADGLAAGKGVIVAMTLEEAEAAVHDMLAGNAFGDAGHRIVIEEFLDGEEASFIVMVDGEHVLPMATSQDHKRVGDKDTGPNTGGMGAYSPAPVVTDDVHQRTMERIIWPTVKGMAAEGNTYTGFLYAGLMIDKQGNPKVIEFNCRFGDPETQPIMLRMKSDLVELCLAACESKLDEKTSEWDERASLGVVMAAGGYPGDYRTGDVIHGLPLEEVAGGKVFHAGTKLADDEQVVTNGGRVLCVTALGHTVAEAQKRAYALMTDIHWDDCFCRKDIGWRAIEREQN

PurM (E. coli) = target: T6, PurM (E. coli) (UniProt P08178); test: split reporter
T6 sequence: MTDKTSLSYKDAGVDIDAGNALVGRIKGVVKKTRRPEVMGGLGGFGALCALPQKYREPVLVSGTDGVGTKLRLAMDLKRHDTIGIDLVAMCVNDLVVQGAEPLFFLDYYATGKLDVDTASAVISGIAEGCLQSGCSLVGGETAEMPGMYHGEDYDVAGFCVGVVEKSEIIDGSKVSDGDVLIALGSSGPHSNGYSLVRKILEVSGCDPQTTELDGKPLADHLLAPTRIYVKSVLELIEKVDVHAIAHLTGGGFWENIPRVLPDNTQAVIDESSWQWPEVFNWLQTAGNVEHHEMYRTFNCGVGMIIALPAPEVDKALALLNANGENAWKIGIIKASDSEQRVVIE

PurT (E. coli) [3] = target: T7, PurT (E. coli) (UniProt P33221); test: split reporter
T7 sequence: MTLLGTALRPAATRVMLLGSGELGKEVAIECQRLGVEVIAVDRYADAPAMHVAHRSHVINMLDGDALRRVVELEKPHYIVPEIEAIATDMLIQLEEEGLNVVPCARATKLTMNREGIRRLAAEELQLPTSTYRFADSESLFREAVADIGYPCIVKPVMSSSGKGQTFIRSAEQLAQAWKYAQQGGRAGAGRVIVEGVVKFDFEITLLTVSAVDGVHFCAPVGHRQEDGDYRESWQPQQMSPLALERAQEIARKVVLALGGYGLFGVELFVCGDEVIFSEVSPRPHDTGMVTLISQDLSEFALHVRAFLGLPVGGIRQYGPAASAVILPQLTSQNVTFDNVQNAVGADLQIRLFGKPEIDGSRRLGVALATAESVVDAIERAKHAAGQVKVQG

PurT (E. coli) [4] = target: T7, PurT (E. coli); test: split reporter; remark: listed apart in the source
PabC (E. coli) = target: T8, PabC (E. coli) (UniProt P28305); test: split reporter
T8 sequence: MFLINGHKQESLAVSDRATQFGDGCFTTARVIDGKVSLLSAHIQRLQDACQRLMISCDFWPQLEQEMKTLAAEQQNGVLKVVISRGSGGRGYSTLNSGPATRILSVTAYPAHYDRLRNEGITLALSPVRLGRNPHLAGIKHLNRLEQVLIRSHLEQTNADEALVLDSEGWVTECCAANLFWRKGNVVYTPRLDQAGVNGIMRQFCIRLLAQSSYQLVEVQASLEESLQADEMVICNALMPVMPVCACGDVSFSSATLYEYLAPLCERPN

**Q.** What does the source list for “GlyA (from UniProt P0A825 1-417) (enzyme)”?
**A.** binding (GlyA (E. coli)): binds; binding (MetF (E. coli)): binds

**Q.** How did the binding (GlyA (E. coli)) turn out when “Dihydrofolate Reductase (DHFR) (from UniProt P0ABQ4) (enzyme)” was run?
**A.** Its binding is “binds”.

**Q.** What about the binding (MetF (E. coli)) of the same molecule?
**A.** Its binding is “binds”.

**Q.** What about the binding (NudB (E. coli)) of the same molecule?
**A.** The binding was “binds”.

**Q.** What about the binding (PurK (E. coli)) of the same molecule?
**A.** The binding was “binds”.

**Q.** What about the binding [1] of the same molecule?
**A.** Its binding is “binds”.

**Q.** How did the binding [2] turn out when “ADK (purified control protein) (from UniProt P69441 1-214) (enzyme)” was run?
**A.** The binding was “no binding (tested: 15 µM)”.

**Q.** What about the binding (FolK (purified protein)) of the same molecule?
**A.** Its binding is “no binding (tested: 15 µM)”.

B1: FolK (enzyme, UniProt P26281 1-159)
chain: MTVAYIAIGSNLASPLEQVNAALKALGDIPESHILTVSSFYRTPPLGPQDQPDYLNAAVALETSLAPEELLNHTQRIELQQGRVRKAERWGPRTLDLDIMLFGNEVINTERLTVPHYDMKNRGFMLWPLFEIAPELVFPDGEMLRQILHTRAFDKLNKW
**Q.** What does the source list for B1?
**A.** binding (GlyA (E. coli)): binds; binding (MetF (E. coli)): binds

B2: PurK (enzyme, UniProt P09029 1-355)
chain: MKQVCVLGNGQLGRMLRQAGEPLGIAVWPVGLDAEPAAVPFQQSVITAEIERWPETALTRELARHPAFVNRDVFPIIADRLTQKQLFDKLHLPTAPWQLLAERSEWPAVFDRLGELAIVKRRTGGYDGRGQWRLRANETEQLPAECYGECIVEQGINFSGEVSLVGARGFDGSTVFYPLTHNLHQDGILRTSVAFPQANAQQQAQAEEMLSAIMQELGYVGVMAMECFVTPQGLLINELAPRVHNSGHWTQNGASISQFELHLRAITDLPLPQPVVNNPSVMINLIGSDVNYDWLKLPLVHLHWYDKEVRPGRKVGHLNLTDSDTSRLTATLEALIPLLPPEYASGVIWAQSKFG
**Q.** What does the source list for B2?
**A.** binding (PurD (E. coli)): binds; binding (PurK (E. coli)): binds; binding (PurM (E. coli)): binds; binding (PurT (E. coli) [3]): binds

B3: PurD (enzyme, UniProt P15640 1-429)
chain: MKVLVIGNGGREHALAWKAAQSPLVETVFVAPGNAGTALEPALQNVAIGVTDIPALLDFAQNEKIDLTIVGPEAPLVKGVVDTFRAAGLKIFGPTAGAAQLEGSKAFTKDFLARHKIPTAEYQNFTEVEPALAYLREKGAPIVIKADGLAAGKGVIVAMTLEEAEAAVHDMLAGNAFGDAGHRIVIEEFLDGEEASFIVMVDGEHVLPMATSQDHKRVGDKDTGPNTGGMGAYSPAPVVTDDVHQRTMERIIWPTVKGMAAEGNTYTGFLYAGLMIDKQGNPKVIEFNCRFGDPETQPIMLRMKSDLVELCLAACESKLDEKTSEWDERASLGVVMAAGGYPGDYRTGDVIHGLPLEEVAGGKVFHAGTKLADDEQVVTNGGRVLCVTALGHTVAEAQKRAYALMTDIHWDDCFCRKDIGWRAIEREQN
**Q.** With B3 as the molecule, how does the binding (PurM (E. coli)) read?
**A.** Its binding is “binds”.

**Q.** And the binding (PurT (E. coli) [3])?
**A.** Its binding is “binds”.

**Q.** What about the binding (PurT (E. coli) [4]) of the same molecule?
**A.** Its binding is “binds”.

B4: PurM (enzyme, UniProt P08178 1-345)
chain: MTDKTSLSYKDAGVDIDAGNALVGRIKGVVKKTRRPEVMGGLGGFGALCALPQKYREPVLVSGTDGVGTKLRLAMDLKRHDTIGIDLVAMCVNDLVVQGAEPLFFLDYYATGKLDVDTASAVISGIAEGCLQSGCSLVGGETAEMPGMYHGEDYDVAGFCVGVVEKSEIIDGSKVSDGDVLIALGSSGPHSNGYSLVRKILEVSGCDPQTTELDGKPLADHLLAPTRIYVKSVLELIEKVDVHAIAHLTGGGFWENIPRVLPDNTQAVIDESSWQWPEVFNWLQTAGNVEHHEMYRTFNCGVGMIIALPAPEVDKALALLNANGENAWKIGIIKASDSEQRVVIE
**Q.** Which binding (PurT (E. coli) [3]) does the source give for B4 here?
**A.** The binding was “binds”.

B5: PabA (enzyme, UniProt P00903 1-187)
chain: MILLIDNYDSFTWNLYQYFCELGADVLVKRNDALTLADIDALKPQKIVISPGPCTPDEAGISLDVIRHYAGRLPILGVCLGHQAMAQAFGGKVVRAAKVMHGKTSPITHNGEGVFRGLANPLTVTRYHSLVVEPDSLPACFDVTAWSETREIMGIRHRQWDLEGVQFHPESILSEQGHQLLANFLHR
**Q.** What does the source list for B5?
**A.** binding (NudB (E. coli)): no binding; binding (PabC (E. coli)): no binding

B6: PabC (enzyme, UniProt P28305 1-269)
chain: MFLINGHKQESLAVSDRATQFGDGCFTTARVIDGKVSLLSAHIQRLQDACQRLMISCDFWPQLEQEMKTLAAEQQNGVLKVVISRGSGGRGYSTLNSGPATRILSVTAYPAHYDRLRNEGITLALSPVRLGRNPHLAGIKHLNRLEQVLIRSHLEQTNADEALVLDSEGWVTECCAANLFWRKGNVVYTPRLDQAGVNGIMRQFCIRLLAQSSYQLVEVQASLEESLQADEMVICNALMPVMPVCACGDVSFSSATLYEYLAPLCERPN
**Q.** Which binding (NudB (E. coli)) does the source give for B6 here?
**A.** The binding was “no binding”.
